Results are given in words; binding and its absence hold for the method and conditions named. Binding seen in cells or lysates may run through a third protein. A yes stands for co-enrichment or nearness to the bait. Other partners may have been found.
target: T1, purine-rich element binding protein alpha (PURα) (human (endogenous in KYSE510)) (UniProt Q00577); assay: affinity purification with mass spectrometry; whole-cell extracts of KYSE510 cells immunoprecipitated with anti-PURα antibody or rabbit IgG on magnetic beads; on-bead trypsin; label-free quantification (LFQ) LC-MS/MS; criteria unique peptides ≥1 and LFQ intensity ratio ≥1.8
T1 sequence: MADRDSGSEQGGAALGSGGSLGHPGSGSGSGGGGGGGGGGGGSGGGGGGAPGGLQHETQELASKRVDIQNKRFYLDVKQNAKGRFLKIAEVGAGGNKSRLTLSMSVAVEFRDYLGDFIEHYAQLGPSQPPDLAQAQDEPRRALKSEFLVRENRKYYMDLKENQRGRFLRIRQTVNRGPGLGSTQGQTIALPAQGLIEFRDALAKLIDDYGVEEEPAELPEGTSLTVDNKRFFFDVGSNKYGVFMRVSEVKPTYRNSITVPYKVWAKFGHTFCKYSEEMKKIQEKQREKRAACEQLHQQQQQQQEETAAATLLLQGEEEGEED

Chains of the proteins cited; added tags and fusions are not shown.
UniProt P55884: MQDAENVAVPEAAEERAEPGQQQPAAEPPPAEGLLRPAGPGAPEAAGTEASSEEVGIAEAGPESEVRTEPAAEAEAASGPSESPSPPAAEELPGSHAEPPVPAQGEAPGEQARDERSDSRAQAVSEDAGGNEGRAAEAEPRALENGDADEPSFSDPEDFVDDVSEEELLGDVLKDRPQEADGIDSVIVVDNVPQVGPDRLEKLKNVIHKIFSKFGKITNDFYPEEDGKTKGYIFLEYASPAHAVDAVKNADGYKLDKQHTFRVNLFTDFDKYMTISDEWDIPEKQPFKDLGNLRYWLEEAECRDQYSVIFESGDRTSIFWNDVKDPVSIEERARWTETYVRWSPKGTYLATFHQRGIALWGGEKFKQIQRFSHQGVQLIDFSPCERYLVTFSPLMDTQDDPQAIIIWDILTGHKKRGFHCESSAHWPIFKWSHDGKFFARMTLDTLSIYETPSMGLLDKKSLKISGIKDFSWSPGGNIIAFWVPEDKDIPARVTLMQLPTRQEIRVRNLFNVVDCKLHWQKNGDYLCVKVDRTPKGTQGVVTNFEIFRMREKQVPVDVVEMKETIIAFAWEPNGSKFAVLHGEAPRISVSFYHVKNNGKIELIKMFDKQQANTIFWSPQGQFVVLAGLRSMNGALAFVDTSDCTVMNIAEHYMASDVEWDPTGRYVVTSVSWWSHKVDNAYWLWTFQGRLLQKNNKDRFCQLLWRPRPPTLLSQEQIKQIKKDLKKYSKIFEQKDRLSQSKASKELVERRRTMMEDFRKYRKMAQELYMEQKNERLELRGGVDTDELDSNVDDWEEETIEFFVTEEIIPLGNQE
UniProt O60506: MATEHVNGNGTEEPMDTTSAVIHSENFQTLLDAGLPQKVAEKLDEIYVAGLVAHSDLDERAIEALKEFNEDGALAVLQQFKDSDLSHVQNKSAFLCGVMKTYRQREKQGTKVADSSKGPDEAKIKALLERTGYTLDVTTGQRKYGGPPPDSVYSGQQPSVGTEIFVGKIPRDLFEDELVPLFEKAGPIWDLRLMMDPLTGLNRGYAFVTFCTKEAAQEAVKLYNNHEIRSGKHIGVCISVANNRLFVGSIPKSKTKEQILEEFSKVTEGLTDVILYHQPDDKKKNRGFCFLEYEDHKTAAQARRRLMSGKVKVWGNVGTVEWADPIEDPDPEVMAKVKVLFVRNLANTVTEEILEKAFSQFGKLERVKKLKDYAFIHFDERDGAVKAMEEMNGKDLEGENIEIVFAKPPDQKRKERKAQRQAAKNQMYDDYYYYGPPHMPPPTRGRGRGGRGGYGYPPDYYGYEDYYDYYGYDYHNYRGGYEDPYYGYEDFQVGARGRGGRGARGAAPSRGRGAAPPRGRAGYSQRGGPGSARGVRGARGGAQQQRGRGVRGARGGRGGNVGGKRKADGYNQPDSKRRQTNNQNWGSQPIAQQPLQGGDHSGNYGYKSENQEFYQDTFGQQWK
UniProt P50750: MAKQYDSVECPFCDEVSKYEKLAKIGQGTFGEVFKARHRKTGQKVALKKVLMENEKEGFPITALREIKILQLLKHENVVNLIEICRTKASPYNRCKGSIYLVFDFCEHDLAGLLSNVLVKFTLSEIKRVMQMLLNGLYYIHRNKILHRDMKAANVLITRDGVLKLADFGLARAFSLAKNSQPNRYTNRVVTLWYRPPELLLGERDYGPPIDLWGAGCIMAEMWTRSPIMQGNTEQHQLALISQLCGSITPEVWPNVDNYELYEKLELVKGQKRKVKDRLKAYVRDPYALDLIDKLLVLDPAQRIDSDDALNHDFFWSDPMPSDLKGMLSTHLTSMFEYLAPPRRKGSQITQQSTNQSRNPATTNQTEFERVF
UniProt P11940: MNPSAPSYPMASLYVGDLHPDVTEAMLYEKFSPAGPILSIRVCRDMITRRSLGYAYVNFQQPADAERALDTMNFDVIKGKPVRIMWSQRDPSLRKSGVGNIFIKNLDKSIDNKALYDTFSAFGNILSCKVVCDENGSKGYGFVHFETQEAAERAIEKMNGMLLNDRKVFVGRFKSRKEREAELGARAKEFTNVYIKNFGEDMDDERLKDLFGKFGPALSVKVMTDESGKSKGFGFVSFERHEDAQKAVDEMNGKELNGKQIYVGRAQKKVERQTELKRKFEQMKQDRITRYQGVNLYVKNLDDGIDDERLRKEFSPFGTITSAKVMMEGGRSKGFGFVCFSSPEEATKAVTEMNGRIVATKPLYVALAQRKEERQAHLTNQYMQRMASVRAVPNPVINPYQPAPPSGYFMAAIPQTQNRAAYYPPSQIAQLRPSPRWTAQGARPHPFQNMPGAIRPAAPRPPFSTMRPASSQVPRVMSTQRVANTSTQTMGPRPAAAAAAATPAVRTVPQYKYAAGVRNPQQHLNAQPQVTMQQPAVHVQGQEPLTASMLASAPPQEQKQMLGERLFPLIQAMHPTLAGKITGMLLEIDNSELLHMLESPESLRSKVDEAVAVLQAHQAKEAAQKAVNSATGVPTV
UniProt O00567: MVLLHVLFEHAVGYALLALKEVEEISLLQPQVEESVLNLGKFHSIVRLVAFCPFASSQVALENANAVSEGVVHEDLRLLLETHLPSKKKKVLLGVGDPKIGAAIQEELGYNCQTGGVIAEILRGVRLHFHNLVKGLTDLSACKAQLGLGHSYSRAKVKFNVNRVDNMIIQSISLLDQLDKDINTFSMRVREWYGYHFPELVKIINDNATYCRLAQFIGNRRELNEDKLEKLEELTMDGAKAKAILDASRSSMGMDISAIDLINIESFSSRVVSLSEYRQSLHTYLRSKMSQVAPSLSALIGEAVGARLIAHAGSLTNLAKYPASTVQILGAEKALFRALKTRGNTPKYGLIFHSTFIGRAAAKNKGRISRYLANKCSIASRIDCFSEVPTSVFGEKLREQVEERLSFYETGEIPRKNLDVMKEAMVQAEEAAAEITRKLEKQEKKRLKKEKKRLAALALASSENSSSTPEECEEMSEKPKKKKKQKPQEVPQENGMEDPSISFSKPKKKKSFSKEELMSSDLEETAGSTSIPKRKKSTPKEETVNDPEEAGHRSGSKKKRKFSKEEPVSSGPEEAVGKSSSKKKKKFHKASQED
UniProt O00303: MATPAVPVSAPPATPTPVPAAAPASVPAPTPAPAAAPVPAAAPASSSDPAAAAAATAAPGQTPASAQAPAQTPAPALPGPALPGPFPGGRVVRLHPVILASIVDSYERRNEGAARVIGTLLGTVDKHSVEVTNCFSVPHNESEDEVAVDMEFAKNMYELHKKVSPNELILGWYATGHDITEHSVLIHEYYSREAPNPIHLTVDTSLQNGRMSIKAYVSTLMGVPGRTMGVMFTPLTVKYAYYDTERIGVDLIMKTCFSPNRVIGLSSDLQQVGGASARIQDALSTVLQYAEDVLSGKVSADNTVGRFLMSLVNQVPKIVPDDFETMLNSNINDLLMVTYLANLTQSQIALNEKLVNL

binding, binds:
EIF3B (from UniProt P55884 1-814), SYNCRIP (from UniProt O60506 1-623), CDK9 (from UniProt P50750 1-372), PABPC1 (from UniProt P11940 1-636), NOP56 (from UniProt O00567 1-594), EIF3F (from UniProt O00303 1-357)

Reference: PMC9481463
